# Experimental data taken from PubChem BioAssay AID493014 (National Center for Advancing Translational Sciences (NCATS), 2011).
# Out of some 340,000 compounds screened, about 170 (0.05%) were called active. Inconclusive results, whose numbers are uncertain, are shown with a selection of clear calls. The call rests on the fitted dose curve; in most records, active means well fitted inhibition curve with a large enough effect in the signal ratio, with a control signal flat (not every such curve was filed as active); inconclusive means small, poorly fitted or top-dose-only effect, or effect the other way, or a change in a side signal; inactive means flat fitted curve, though single readings scatter; the % refers to the signal ratio. Potencies of inconclusive entries are doubtful fits and often do not repeat.
# Assay: qHTS Assay to Find Inhibitors of Chronic Active B-Cell Receptor Signaling;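 on activity change, negative = inhibition: plate controls were basal doxycycline-induced cells for no effect and cells given 10 µM MG132 for full effect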
# Conditions: ABC-DLBCL IkBa-CBG/CBR reporter, luminescence ratio (green luciferase fused to IkBa over red control in TMD8 lymphoma cells), 4 h; activity change, negative = inhibition: at 46.1 µM (top of the series) unless noted
# Summary of the method: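 Doxycycline induced both beetle luciferases in TMD8 lymphoma cells; IKK-driven degradation limits the IkappaBalpha-fused green signal, while red luminescence normalises for cell number and nonspecific effects. Compounds tested up to 46 uM, 4 hrs.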
# Potency means the concentration at half of the fitted maximal effect.
SMILES,"activity change, negative = inhibition",Potency
CC(C)Cc1ccc(C(C)C(=O)Nc2ccccc2O)cc1 (configuration not stated),inactive: 0.973%,
O=C(OCC(=O)N1CCN(c2ccccc2)CC1)c1ccccc1[N+](=O)[O-],inconclusive: -2.97%,
O=C(OCc1csc(-c2ccccc2)n1)c1ccc(O)cc1,inactive: -2.98%,
CN(c1ccccc1)c1nc(N)c(C#N)c(CC#N)c1C#N,inconclusive: -21%,
C=C[C@@](C)(O)CC[C@@H]1[C@@]2(C)CCCC(C)(C)[C@@H]2CC[C@@]1(C)O,,"inconclusive: 0.0891 µM [falling, full curve, poor fit]"
N#CCn1c2ccccc2c2nc3ccccc3nc21,,"inconclusive: 0.794 µM [rising, partial curve, poor fit]"
Cn1c(Cn2nnc(-c3ccccc3)n2)nnc1SCc1ccccc1Cl,inconclusive: 6.82%,
COc1cc(C)nc(N2CCCC(C(=O)NC3CCC(C)CC3)C2)n1 (configuration not stated),inactive: 0.422%,
Nc1ncnc(NC2CCS(=O)(=O)C2)c1[N+](=O)[O-] (configuration not stated),inconclusive: 11.4%,
CCOC(=O)/C(C#N)=C/c1ccc(OCC(=O)Nc2ccccc2)c(OC)c1,,"inconclusive: 16.4 µM [falling, partial curve]"
CC(C(=O)NC(=O)NC1CCCCC1)N1CCN(c2ccccn2)CC1 (configuration not stated),inconclusive: -4.2%,
CCOc1ccccc1NC(=O)C1CCN(S(=O)(=O)c2c(C)nn(C)c2C)CC1,inconclusive: -0.872%,
COCCN1Cc2cccc(C(=O)Nc3ccc(C)c(C)c3)c2C1=O,,"inconclusive: 3.66 µM [rising, full curve, poor fit]"
CCCc1c2c(cc3c(=O)cc(C(=O)OCC)oc13)CCCC2,inactive: -1.76%,
COc1cc2nc(CN3CCN(S(=O)(=O)c4cc(C)ccc4C)CC3)[nH]c(=O)c2cc1OC,inconclusive: 0.106%,
Cc1nn(CCC(=O)NNC(=S)Nc2cccc(Cl)c2)c(C)c1[N+](=O)[O-],inconclusive: 15.3%,
COc1ccc(S(=O)(=O)N2CCC(C(=O)N[C@H](C(=O)NC3CCCC3)C(C)C)CC2)cc1,inactive: -0.106%,
CC(=O)Oc1ccc(C2C3=C(CC(C)(C)CC3=O)Nc3cc4c(cc32)OCCO4)cc1 (configuration not stated),,"inconclusive: 4.47 µM [falling, partial curve, poor fit]"
COc1ccc(C(=O)NCC(c2cccs2)S(=O)(=O)c2cccs2)cc1 (configuration not stated),inactive: 11.2%,
COc1ccc(-c2nnc(SCC(=O)NNC(=O)Cc3ccccc3)n2C)cc1OC,inconclusive: 6.81%,
CCCCN(C)CCNC(=O)CN1C(=O)CSc2ccc(S(=O)(=O)N3CCCC3)cc21,inactive: -0.364%,

SMILES,"activity change, negative = inhibition",Potency
Cc1nc2c(ccc3nc(NC(=O)c4ccc5c(c4)OCCO5)sc32)s1,,"inconclusive: 3.55 µM [falling, partial curve]"
CCOC(=O)c1ccc(NC(=O)COc2ccccc2CNC2CCCC2)cc1,inconclusive: -22.3%,
CC(NC(=O)C12CC3CC(CC(O)(C3)C1)C2)c1ccccc1 (configuration not stated),inconclusive: 0.422%,
COCCCn1c(=O)/c(=C\c2ccccc2OC(F)F)s/c1=C(/C#N)C(=O)NCCOC,inactive: -1.73%,
COc1ccc(CCNC(=O)c2cc(-c3ccc(C)c(C)c3)nc3ccccc23)cc1OC,inconclusive: 2.37%,
COCCN(CC(=O)Nc1cccc(C)c1C)C(=O)Cn1cnc2ccccc2c1=O,inactive: -2.63%,
COc1ccc(CNS(=O)(=O)CCNC(=O)c2ccc(OC)cc2)cc1,,"inconclusive: 29.1 µM [falling, single point]"
CCN(CC)C(=N)/C(C#N)=N/Nc1ccc(C)cc1,inactive: 0.741%,
COc1ccc(S(=O)(=O)N(C)CC(=O)Nc2ccc(C)cc2)cc1OC,inactive: -0.089%,
CCSC1=C(C#N)C(c2ccccc2OC)CC(=O)N1 (configuration not stated),inactive: -12.4%,
CCOC(=O)CC1=CC(=O)Nc2ccccc2N1,inconclusive: 3.65%,
O=S(=O)(Nc1ccc(N2CCCCC2)cc1)c1cccc2cccnc12,inconclusive: 3.57%,
CCCCN(C(=O)c1ccc(Cl)cc1)C1CC2CCC(C1)N2C (configuration not stated),inactive: -0.627%,
CC(C)N(C(=O)CSc1nc(Cc2ccccc2)nc2ccccc12)C(C)C,,"inconclusive: 2.82 µM [falling, partial curve, poor fit]"
COc1ccccc1C(=O)N/C(=C/c1ccco1)C(=O)Nc1ccc(C(=O)O)cc1,,"inconclusive: 22.4 µM [falling, partial curve]"
N#Cc1c(N)n[nH]c1CCCN,inconclusive: -27.2%,
Cc1oc2ccccc2c1CC(=O)NCCCN(C)C,inconclusive: -3.38%,
COc1ccc([C@H]2CC(=O)C=C(c3cc(Cl)ccc3C)C2)cc1,inconclusive: -0.491%,
Nn1c(SC/C=C/c2ccccc2)nnc1-c1cccnc1,inactive: -1.73%,
COc1ccc(C(=O)Cn2c(C)nc([N+](=O)[O-])c2Br)cc1,,"inconclusive: 11.2 µM [falling, partial curve]"
CN(C(=O)c1cccc(NC(=O)Cc2cccc([N+](=O)[O-])c2)c1)C1CCCC1,inconclusive: 1.45%,

SMILES,"activity change, negative = inhibition",Potency
Cc1c(NC(=O)c2cnn3cccnc23)c(=O)n(-c2ccccc2)n1C,inconclusive: 5.67%,
COc1ccc(OC)c(NC(=O)C2CCN(Cc3cnn(-c4ccccc4)c3-n3cccc3)CC2)c1,inconclusive: -3.6%,
Cc1ccccc1-n1cnnc1SCC(=O)N1CCN(c2ccccc2)CC1,inconclusive: 15.6%,
COc1ccccc1N(CC(=O)NCc1ccccc1)C(=O)CCC(=O)Nc1cc(C)ccn1,,"inconclusive: 2.59 µM [falling, full curve]"
Cc1nc(-c2ccccc2)sc1C1(C)CC(c2ccc(C#N)cc2)=NO1 (configuration not stated),inconclusive: 15%,
O=C(CN1CCCc2ccccc21)N/N=C/c1ccccc1,inactive: -0.493%,
COCCn1c(CN2CC(C)CC(C)C2)nc2c1c(=O)n(C)c(=O)n2C (configuration not stated),,"inconclusive: 6.51 µM [rising, single point]"
COc1ccc(NC(=O)C2CCCN(c3nc(C)cc(C)n3)C2)cc1 (configuration not stated),inconclusive: 2.96%,
COc1ccccc1C1CC(=O)Oc2cc(C)c(Cl)cc21 (configuration not stated),inactive: 6.25%,
O=S(=O)(c1ccc(Br)cc1)N1CCn2cccc2C1c1ccc(Br)cc1 (configuration not stated),,"inconclusive: 12.6 µM [rising, single point]"
COCCSc1ccccc1C(=O)Nc1nnc(COC)s1,inconclusive: -8.21%,
CN1CCc2c(sc(N)c2C(N)=O)C1,inactive: -0.0288%,
N#Cc1ccc(C2N=C(c3ccccc3)NO2)cc1 (configuration not stated),,"inconclusive: 22.4 µM [falling, single point]"
COc1ccc(Nc2nc(NC(C)(C)C)nc(N3CCCC3)n2)c(OC)c1,,"inconclusive: 20.6 µM [rising, single point]"
COc1ccc(Cl)cc1C(=O)Nc1ccccc1N1CCN(C)CC1,inconclusive: -17.7%,
Cc1ccc(-n2nnnc2CNC(=O)c2ccc([N+](=O)[O-])o2)cc1C,inconclusive: -27.8%,
CN(C)S(=O)(=O)c1ccc(Cl)c(NC(=O)CSc2nc3c(cc2C#N)C(=O)CC(C)(C)C3)c1,inactive: 1.33%,
COc1ccccc1C1CCN(C(=O)c2cccs2)CC1,inactive: -0.357%,
C#CCSc1nnc(-c2ccccc2)c(=O)[nH]1,,"inconclusive: 6.51 µM [falling, single point]"
CCOc1ccccc1NC(=O)CSc1nnc(-c2ccccn2)n1Cc1ccco1,inconclusive: -11.4%,
CC(=O)N1CCN(CC(O)COc2ccc(S(=O)(=O)N3CCOCC3)cc2)CC1 (configuration not stated),inconclusive: 1.79%,

# Structures above with a thiophene ring, fused or not, in the order listed:
SMILES,"activity change, negative = inhibition",Potency
COc1ccc(C(=O)NCC(c2cccs2)S(=O)(=O)c2cccs2)cc1 (configuration not stated),inactive: 11.2%,
CN1CCc2c(sc(N)c2C(N)=O)C1,inactive: -0.0288%,
COc1ccccc1C1CCN(C(=O)c2cccs2)CC1,inactive: -0.357%,

# (further entries)

SMILES,"activity change, negative = inhibition",Potency
Nc1nnc(CSCc2ccc(F)cc2)s1,inconclusive: 10.2%,
O=C(O)c1ccccc1C(=O)Nc1cccc([N+](=O)[O-])c1,inactive: -3.6%,
O=C(COC(=O)c1ccccc1NC(=O)c1ccccc1)c1cccc([N+](=O)[O-])c1,,"inconclusive: 18.4 µM [falling, partial curve]"
Cc1[nH]c(=O)[nH]c(=O)c1S(=O)(=O)NCC12CC3CC(CC(C3)C1)C2,inconclusive: -0.0825%,
COc1cccc(C2NC(=S)NC(C)=C2C(=O)c2ccccc2)c1OC (configuration not stated),,"inconclusive: 7.94 µM [falling, partial curve]"
COc1ccc(C(C)=O)cc1CSc1nc2cc(Cl)ccc2o1,inconclusive: -0.725%,
O=C(Nc1nc2ccccc2[nH]1)c1cccc(Cl)c1,,"inconclusive: 17.8 µM [falling, partial curve]"
CC1=NN(c2ccc(C(=O)OC(C)C)cc2)C(=O)/C1=C\C=C\c1ccco1,inactive: -14.1%,
COc1ccc(S(=O)(=O)N2CCC(C(=O)NCCC(=O)NCc3ccccc3OC)CC2)cc1,inactive: 1.3%,
CCOC(=O)C1CCN(C(=O)c2cc3c(C)cc(C)cc3[nH]2)CC1,,"inconclusive: 35.5 µM [falling, single point]"
O=C1C(Cl)=C(NC2CCCCC2)C(=O)N1Cc1ccccc1,,"inconclusive: 6.31 µM [rising, partial curve, poor fit]"
CCOC(=O)CN1C(=O)CCSc2ccc(Cl)cc21,inconclusive: 3.53%,
COC(=O)Cn1cc(/C=C/c2cc[n+](C)cc2)c2ccccc21,inactive: -0.799%,
CC1CCN(C(c2ccccc2)c2nnnn2C(C)(C)C)CC1 (configuration not stated),inconclusive: 17.2%,
CCn1c(=O)c(C(=O)NNC(=O)c2ccccc2Br)c(O)c2ccccc21,,"inconclusive: 15.8 µM [falling, partial curve]"
Cc1ccc(CC(=O)O/N=C(\N)c2ccccn2)cc1,inactive: -1.73%,
C[C@@H]1C[C@H]2[C@@H]3CCC4=CC(=O)C=C[C@]4(C)[C@@]3(F)[C@@H](O)C[C@]2(C)[C@H]1C(=O)CO,inconclusive: 5.56%,
CCc1noc(C)c1C(=O)Nc1nc(-c2ccccc2)cs1,inconclusive: -1.45%,
Cc1ccc2nc(NCCc3ccc(Cl)cc3)c3nncn3c2c1,inconclusive: 9.26%,
